Laboratory results reported in the supplement of paper PMC8728848.
The list shows a part of the results.

Key:
Experiment in all cases: glycan array binding signal (z-score within array); higher = stronger binding
Details in all cases: glycan notation: IUPAC condensed, linker removed; mutation: D224N
[1] = molecular target: Neu5Ac(a2-3)Gal6S(b1-4)[Fuc(a1-3)]GlcNAc
Outline: (§1)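 Glycan array data were curated from 3228 arrays in the Consortium for Functional Glycomics database and kept only where the protein sequence was available. Glycan names were converted to IUPAC-condensed notation, and columns mapping to the same glycan were averaged. The binding signal is a within-array Z-score, averaged across arrays of the same protein sequence at different concentrations or buffers and across linkers. Negative Z-scores can be read as non-binding.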

Neu5Ac(a2-3)GalNAc = molecular target: Neu5Ac(a2-3)GalNAc
Outline: as §1

[2] = molecular target: Neu5Ac(a2-3)GalNAc(b1-4)GlcNAc
Outline: as §1

[3] = molecular target: Neu5Ac(a2-3)[GalNAc(b1-4)]Gal(b1-4)Glc
Outline: as §1

[4] = molecular target: Neu5Ac(a2-3)[GalNAc(b1-4)]Gal(b1-4)GlcNAc
Outline: as §1

[5] = molecular target: Neu5Ac(a2-3)[GalNAc(b1-4)]Gal(b1-4)GlcNAc(b1-3)GalNAc
Outline: as §1

[6] = molecular target: Neu5Ac(a2-3)[Neu5Ac(a2-6)]GalNAc
Outline: as §1

Neu5Ac(a2-6)Gal = molecular target: Neu5Ac(a2-6)Gal
Outline: as §1

[7] = molecular target: Neu5Ac(a2-6)Gal(b1-3)GlcNAc(b1-3)[Gal(b1-4)GlcNAc(b1-6)]Gal(b1-4)Glc
Outline: as §1

Neu5Ac(a2-6)Gal(b1-4)Glc = molecular target: Neu5Ac(a2-6)Gal(b1-4)Glc
Outline: as §1

[8] = molecular target: Neu5Ac(a2-6)Gal(b1-4)GlcNAc
Outline: as §1

[9] = molecular target: Neu5Ac(a2-6)Gal(b1-4)GlcNAc(b1-2)Man
Outline: as §1

[10] = molecular target: Neu5Ac(a2-6)Gal(b1-4)GlcNAc(b1-2)Man(a1-3)Man(b1-4)GlcNAc(b1-4)GlcNAc
Outline: as §1

[11] = molecular target: Neu5Ac(a2-6)Gal(b1-4)GlcNAc(b1-2)Man(a1-3)[Gal(b1-4)GlcNAc(b1-2)Man(a1-6)]Man(b1-4)GlcNAc(b1-4)GlcNAc
Outline: as §1

[12] = molecular target: Neu5Ac(a2-6)Gal(b1-4)GlcNAc(b1-2)Man(a1-3)[GlcNAc(b1-2)Man(a1-6)]Man(b1-4)GlcNAc(b1-4)GlcNAc
Outline: as §1

[13] = molecular target: Neu5Ac(a2-6)Gal(b1-4)GlcNAc(b1-2)Man(a1-3)[GlcNAc(b1-4)][Neu5Ac(a2-6)Gal(b1-4)GlcNAc(b1-2)Man(a1-6)]Man(b1-4)GlcNAc(b1-4)GlcNAc
Outline: as §1

[14] = molecular target: Neu5Ac(a2-6)Gal(b1-4)GlcNAc(b1-2)Man(a1-3)[Man(a1-6)]Man(b1-4)GlcNAc(b1-4)GlcNAc
Outline: as §1

[15] = molecular target: Neu5Ac(a2-6)Gal(b1-4)GlcNAc(b1-2)Man(a1-3)[Neu5Ac(a2-3)Gal(b1-4)GlcNAc(b1-2)Man(a1-6)]Man(b1-4)GlcNAc(b1-4)GlcNAc
Outline: as §1

[16] = molecular target: Neu5Ac(a2-6)Gal(b1-4)GlcNAc(b1-2)Man(a1-3)[Neu5Ac(a2-6)Gal(b1-4)GlcNAc(b1-2)Man(a1-6)]Man(b1-4)GlcNAc(b1-4)GlcNAc
Outline: as §1

[17] = molecular target: Neu5Ac(a2-6)Gal(b1-4)GlcNAc(b1-2)Man(a1-3)[Neu5Ac(a2-6)Gal(b1-4)GlcNAc(b1-2)Man(a1-6)]Man(b1-4)GlcNAc(b1-4)[Fuc(a1-6)]GlcNAc
Outline: as §1

[18] = molecular target: Neu5Ac(a2-6)Gal(b1-4)GlcNAc(b1-2)Man(a1-6)Man(b1-4)GlcNAc(b1-4)GlcNAc
Outline: as §1

[19] = molecular target: Neu5Ac(a2-6)Gal(b1-4)GlcNAc(b1-2)Man(a1-6)[Gal(b1-4)GlcNAc(b1-2)Man(a1-3)]Man(b1-4)GlcNAc(b1-4)GlcNAc
Outline: as §1

[20] = molecular target: Neu5Ac(a2-6)Gal(b1-4)GlcNAc(b1-2)Man(a1-6)[GlcNAc(b1-2)Man(a1-3)]Man(b1-4)GlcNAc(b1-4)GlcNAc
Outline: as §1

[21] = molecular target: Neu5Ac(a2-6)Gal(b1-4)GlcNAc(b1-2)Man(a1-6)[Man(a1-3)]Man(b1-4)GlcNAc(b1-4)GlcNAc
Outline: as §1

[22] = molecular target: Neu5Ac(a2-6)Gal(b1-4)GlcNAc(b1-2)[Neu5Ac(a2-6)Gal(b1-4)GlcNAc(b1-4)]Man(a1-3)[GlcNAc(b1-4)][Neu5Ac(a2-6)Gal(b1-4)GlcNAc(b1-2)[Neu5Ac(a2-6)Gal(b1-4)GlcNAc(b1-6)]Man(a1-6)]Man(b1-4)GlcNAc(b1-4)GlcNAc
Outline: as §1

[23] = molecular target: Neu5Ac(a2-6)Gal(b1-4)GlcNAc(b1-2)[Neu5Ac(a2-6)Gal(b1-4)GlcNAc(b1-4)]Man(a1-3)[GlcNAc(b1-4)][Neu5Ac(a2-6)Gal(b1-4)GlcNAc(b1-4)Man(a1-6)]Man(b1-4)GlcNAc(b1-4)GlcNAc
Outline: as §1

[24] = molecular target: Neu5Ac(a2-6)Gal(b1-4)GlcNAc(b1-2)[Neu5Ac(a2-6)Gal(b1-4)GlcNAc(b1-6)]Man(a1-6)[Neu5Ac(a2-6)Gal(b1-4)GlcNAc(b1-2)Man(a1-3)][GlcNAc(b1-4)]Man(b1-4)GlcNAc(b1-4)GlcNAc
Outline: as §1

[25] = molecular target: Neu5Ac(a2-6)Gal(b1-4)GlcNAc(b1-3)Gal(b1-3)GlcNAc
Outline: as §1

[26] = molecular target: Neu5Ac(a2-6)Gal(b1-4)GlcNAc(b1-3)Gal(b1-4)GlcNAc
Outline: as §1

[27] = molecular target: Neu5Ac(a2-6)Gal(b1-4)GlcNAc(b1-3)Gal(b1-4)GlcNAc(b1-2)Man(a1-3)[Neu5Ac(a2-6)Gal(b1-4)GlcNAc(b1-3)Gal(b1-4)GlcNAc(b1-2)Man(a1-6)]GalNAc
Outline: as §1

[28] = molecular target: Neu5Ac(a2-6)Gal(b1-4)GlcNAc(b1-3)Gal(b1-4)GlcNAc(b1-3)Gal(b1-4)GlcNAc
Outline: as §1

[29] = molecular target: Neu5Ac(a2-6)Gal(b1-4)GlcNAc(b1-3)Gal(b1-4)GlcNAc(b1-3)Gal(b1-4)GlcNAc(b1-2)Man(a1-3)[Neu5Ac(a2-6)Gal(b1-4)GlcNAc(b1-3)Gal(b1-4)GlcNAc(b1-3)Gal(b1-4)GlcNAc(b1-2)Man(a1-6)]GalNAc
Outline: as §1

[30] = molecular target: Neu5Ac(a2-6)Gal(b1-4)GlcNAc(b1-3)Gal(b1-4)GlcNAc(b1-3)GalNAc
Outline: as §1

[31] = molecular target: Neu5Ac(a2-6)Gal(b1-4)GlcNAc(b1-3)Gal(b1-4)GlcNAc(b1-3)[Neu5Ac(a2-6)Gal(b1-4)GlcNAc(b1-3)Gal(b1-4)GlcNAc(b1-6)]GalNAc
Outline: as §1

[32] = molecular target: Neu5Ac(a2-6)Gal(b1-4)GlcNAc(b1-3)Gal(b1-4)GlcNAc(b1-6)[Gal(b1-3)]GalNAc
Outline: as §1

[33] = molecular target: Neu5Ac(a2-6)Gal(b1-4)GlcNAc(b1-3)Gal(b1-4)[Fuc(a1-3)]GlcNAc(b1-3)Gal(b1-4)[Fuc(a1-3)]GlcNAc
Outline: as §1

[34] = molecular target: Neu5Ac(a2-6)Gal(b1-4)GlcNAc(b1-3)GalNAc
Outline: as §1

B1: a L Fucosidase (Thermotoga maritima) (protein)
chain: MASMKPRYKPDWESLREHTVPKWFDKAKFGIFIHWGIYSVPGWATPTGELGKVPMDAWFFQNPYAEWYENSLRIKESPTWEYHVKTYGENFEYEKFADLFTAEKWDPQEWADLFKKAGAKYVIPTTKHHDGFCLWGTKYTDFNSVKRGPKRDLVGDLAKAVREAGLRFGVYYSGGLDWRFTTEPIRYPEDLSYIRPNTYEYADYAYKQVMELVDLYLPDVLWNNMGWPEKGKEDLKYLFAYYYNKHPEGSVNDRWGVPHWDFKTAEYHVNYPGDLPGYKWEFTRGIGLSFGYNRNEGPEHMLSVEQLVYTLVDVVSKGGNLLLNVGPKGDGTIPDLQKERLLGLGEWLRKYGDAIYGTSVWERCCAKTEDGTEIRFTRKCNRIFVIFLGIPTGEKIVIEDLNLSAGTVRHFLTGERLSFKNVGKNLEITVPKKLLETDSITLVLEAVEE
Question: How did the “glycan array binding signal (z-score)” value [1] turn out when B1 was run?
Answer: The value was -0.732.

Question: And the “glycan array binding signal (z-score)” value (Neu5Ac(a2-3)GalNAc)?
Answer: Its value is -0.501.

Question: And the “glycan array binding signal (z-score)” value [2]?
Answer: The value was 0.543.

Question: What about the “glycan array binding signal (z-score)” value [3] of the same binder?
Answer: Its value is -0.787.

Question: And the “glycan array binding signal (z-score)” value [4]?
Answer: Its value is -0.393.

Question: What about the “glycan array binding signal (z-score)” value [5] of the same binder?
Answer: Its value is 0.719.

Question: And the “glycan array binding signal (z-score)” value [6]?
Answer: The value was -0.164.

Question: What about the “glycan array binding signal (z-score)” value (Neu5Ac(a2-6)Gal) of the same binder?
Answer: Its value is -0.576.

Question: And the “glycan array binding signal (z-score)” value [7]?
Answer: The value was -0.45.

Question: What about the “glycan array binding signal (z-score)” value (Neu5Ac(a2-6)Gal(b1-4)Glc) of the same binder?
Answer: The value was 0.312.

Question: And the “glycan array binding signal (z-score)” value [8]?
Answer: Its value is 0.226.

Question: And the “glycan array binding signal (z-score)” value [9]?
Answer: Its value is 0.122.

Question: And the “glycan array binding signal (z-score)” value [10]?
Answer: The value was 1.99.

Question: And the “glycan array binding signal (z-score)” value [11]?
Answer: Its value is 0.382.

Question: What about the “glycan array binding signal (z-score)” value [12] of the same binder?
Answer: Its value is 0.195.

Question: And the “glycan array binding signal (z-score)” value [13]?
Answer: The value was 0.496.

Question: And the “glycan array binding signal (z-score)” value [14]?
Answer: The value was 0.075.

Question: And the “glycan array binding signal (z-score)” value [15]?
Answer: The value was -0.737.

Question: And the “glycan array binding signal (z-score)” value [16]?
Answer: The value was 0.562.

Question: What about the “glycan array binding signal (z-score)” value [17] of the same binder?
Answer: The value was 1.27.

Question: What about the “glycan array binding signal (z-score)” value [18] of the same binder?
Answer: Its value is -0.036.

Question: What about the “glycan array binding signal (z-score)” value [19] of the same binder?
Answer: The value was -0.143.

Question: What about the “glycan array binding signal (z-score)” value [20] of the same binder?
Answer: The value was -0.372.

Question: And the “glycan array binding signal (z-score)” value [21]?
Answer: The value was 0.081.

Question: And the “glycan array binding signal (z-score)” value [22]?
Answer: The value was 0.25.

Question: What about the “glycan array binding signal (z-score)” value [23] of the same binder?
Answer: Its value is -0.195.

Question: What about the “glycan array binding signal (z-score)” value [24] of the same binder?
Answer: Its value is 0.657.

Question: What about the “glycan array binding signal (z-score)” value [25] of the same binder?
Answer: Its value is -0.308.

Question: And the “glycan array binding signal (z-score)” value [26]?
Answer: The value was -1.06.

Question: What about the “glycan array binding signal (z-score)” value [27] of the same binder?
Answer: The value was 2.02.

Question: What about the “glycan array binding signal (z-score)” value [28] of the same binder?
Answer: The value was 0.676.

Question: What about the “glycan array binding signal (z-score)” value [29] of the same binder?
Answer: Its value is 10.5.

Question: And the “glycan array binding signal (z-score)” value [30]?
Answer: The value was -1.27.

Question: And the “glycan array binding signal (z-score)” value [31]?
Answer: The value was 1.43.

Question: And the “glycan array binding signal (z-score)” value [32]?
Answer: Its value is 0.088.

Question: What about the “glycan array binding signal (z-score)” value [33] of the same binder?
Answer: The value was -0.035.

Question: What about the “glycan array binding signal (z-score)” value [34] of the same binder?
Answer: The value was 1.83.
